The list shows only some results of the screen, not a fair sample: it is rich in T/C values a quarter to a half above the control, in often repeated tests (any T/C) and in doses without a T/C. Further doses and runs are listed elsewhere. T/C is the treated group as % of the vehicle group. Some entries give survivors of the animals treated and no T/C: the source files T/C as zero there, which appears to mark a toxic dose or a test without result, not a measured value. Some doses without a T/C left all or most animals alive at the check, yet need not have been tolerated: the source hardly ever lists a survival T/C far under the control, and the zero likely stands for such cases as well. Survivors were counted at the toxicity check, usually on the fifth day, unless a day is given; later deaths do not show. Schedule codes are those of the source, taken here to give the interval after Q, in days (D) or hours (H), and the number of doses after X. Some entries hold several experiments; their values stand side by side, smallest first. For survival time, this PubChem deposit counts one and a half times the control or more as active, and values a quarter to a half above the control carry no call in these data; other NCI protocols may use other cut-offs.
Test system: P388 leukemia ip, CD2F1 mice, survival T/C
Test: NCI In Vivo Anticancer Drug Screen. Data for tumor model P388 Leukemia (intraperitoneal) in CD2F1 (CDF1) mice
Conditions: T/C endpoint: median survival time, higher T/C = longer survival
[1] = dose: 100.0 mg/kg/injection, schedule: Q04DX003 (ip), vehicle: saline with Tween-80
[2] = dose: 200.0 mg/kg/injection, schedule: Q04DX003 (ip), vehicle: saline with Tween-80
[3] = dose: 400.0 mg/kg/injection, schedule: Q04DX003 (ip), vehicle: saline with Tween-80
[4] = dose: 50.0 mg/kg/injection, schedule: Q01DX009 (ip), vehicle: Klucel (hydroxypropylcellulose) (HPC)
[5] = dose: 100.0 mg/kg/injection, schedule: Q01DX009 (ip), vehicle: Klucel (hydroxypropylcellulose) (HPC)
[6] = dose: 200.0 mg/kg/injection, schedule: Q01DX009 (ip), vehicle: Klucel (hydroxypropylcellulose) (HPC)
[7] = dose: 200.0 mg/kg/injection, schedule: Q01DX009 (ip), vehicle: saline
[8] = dose: 400.0 mg/kg/injection, schedule: Q01DX009 (ip), vehicle: saline
[9] = dose: 50.0 mg/kg/injection, schedule: Q01DX005 (ip), vehicle: Klucel (hydroxypropylcellulose) (HPC)
[10] = dose: 100.0 mg/kg/injection, schedule: Q01DX005 (ip), vehicle: Klucel (hydroxypropylcellulose) (HPC)
[11] = dose: 100.0 mg/kg/injection, schedule: Q01DX005 (ip), vehicle: saline with Tween-80
[12] = dose: 200.0 mg/kg/injection, schedule: Q01DX005 (ip), vehicle: saline with Tween-80
[13] = dose: 132.0 mg/kg/injection, schedule: Q04DX003 (ip), vehicle: saline with Tween-80

For `CCOC(=O)/N=[N+](\[O-])c1ccccc1`, the T/C (dose: 3.12 mg/kg/injection, schedule: Q01DX009 (ip), vehicle: saline with Tween-80) was 132 % of control, the T/C (dose: 6.25 mg/kg/injection, schedule: Q01DX009 (ip), vehicle: saline with Tween-80) was 126 % of control and the survivor count (dose: 25.0 mg/kg/injection, schedule: Q04DX003 (ip), vehicle: saline with Tween-80) was 1 of 6. The survivor count (dose: 50.0 mg/kg/injection, schedule: Q04DX003 (ip), vehicle: saline with Tween-80) was 1 of 6, the survivor count [1] was 2 of 6 and the survivor count [2] was 0 of 6. For the same molecule, the survivor count [3] was 0 of 6.

In the case of `CCOc1c(N=Nc2ccccc2Cl)c(C)nn1C(=S)S`, the survivor count (dose: 60.0 mg/kg/injection, schedule: Q01DX005 (ip), vehicle: Klucel + Tween-80) is reported as 1 of 4, the survivor count (dose: 120.0 mg/kg/injection, schedule: Q01DX005 (ip), vehicle: Klucel + Tween-80) is reported as 0 of 6 and the survivor count (dose: 240.0 mg/kg/injection, schedule: Q01DX005 (ip), vehicle: Klucel + Tween-80) is reported as 0 of 6.

In the case of `OCCNCCNCC[OH2+].OCCNCCNCC[OH2+].[Ni+2].[O-][Cl+3]([O-])([O-])[O-]`, the survivor count (dose: 50.0 mg/kg/injection, schedule: Q01DX009 (ip), vehicle: saline) is reported as 5 of 6.

In the case of `C/C(=C\C1C/C(=C/CCc2ccoc2)C(=O)O1)CCCc1ccoc1` (configuration not stated), the survivor count (dose: 12.5 mg/kg/injection, schedule: Q01DX009 (ip), vehicle: saline + alcohol) is reported as 6 of 6.

In the case of `CCCCNC1CC(OC2CC(O)(C(C)O)Cc3c(O)c4c(c(O)c32)C(=O)c2c(OC)cccc2C4=O)OC(C)C1O` (configuration not stated), the T/C (dose: 2.0 mg/kg/injection, schedule: Q01DX009 (ip), vehicle: water) is reported as 139 % of control, the T/C (dose: 4.0 mg/kg/injection, schedule: Q01DX009 (ip), vehicle: water) is reported as 130 % of control and the T/C (dose: 8.0 mg/kg/injection, schedule: Q01DX009 (ip), vehicle: water) is reported as 143 % of control. For the same molecule, the T/C (dose: 16.0 mg/kg/injection, schedule: Q01DX009 (ip), vehicle: water) was 127 % of control and the T/C (dose: 32.0 mg/kg/injection, schedule: Q01DX009 (ip), vehicle: water) was 127 % of control.

For `O=S1(=O)OCCCO1`, the survivor count (dose: 100.0 mg/kg/injection, schedule: Q01DX005 (ip), vehicle: saline) was 0 of 6.

`O=C(CC(=O)CC(O)(C(F)(F)F)C(F)(F)F)CC(O)(C(F)(F)F)C(F)(F)F` was tested, and the survivor count (dose: 5.0 mg/kg/injection, schedule: Q04DX003 (ip), vehicle: saline) was 0 of 6.

For `C1C2OC2C2C1C1CC2C2OC12` (configuration not stated), the survivor count (dose: 25.0 mg/kg/injection, schedule: Q01DX009 (ip), vehicle: Klucel (hydroxypropylcellulose) (HPC)) was 6 of 6, the survivor count [4] was 5 of 6 and the survivor count [5] was 0 of 6. The survivor count [6] was 0 of 6.

In the case of `[Cu].c1ccc2c3[n-]c(c2c1)/N=c1\[n-]/c(c2ccccc12)=N\c1[n-]c(c2ccccc12)/N=c1\[n-]/c(c2ccccc12)=N\3`, the survivor count [7] is reported as 1 of 6 and the survivor count [8] is reported as 0 of 6.

`COc1ccc2nc3cc(Cl)ccc3c(NCCC3CCCN4CCCCC34)c2c1` (configuration not stated) was tested, and the survivor count (dose: 50.0 mg/kg/injection, schedule: Q01DX005 (ip), vehicle: distilled water + Tween-80) was 5 of 6, the survivor count (dose: 100.0 mg/kg/injection, schedule: Q01DX005 (ip), vehicle: distilled water + Tween-80) was 0 of 6 and the survivor count (dose: 200.0 mg/kg/injection, schedule: Q01DX005 (ip), vehicle: distilled water + Tween-80) was 0 of 6.

For `CNNS(=O)(=O)CC(O)C(Cl)(Cl)Cl` (configuration not stated), the survivor count [7] was 0 of 6.

`CC1=C(CCC(C)NCc2ccc(OCCCN3CCCCC3)cc2)C(C)(C)CCC1` (configuration not stated) was tested, and the survivor count [9] was 0 of 5, the survivor count [10] was 0 of 5 and the survivor count (dose: 200.0 mg/kg/injection, schedule: Q01DX005 (ip), vehicle: Klucel (hydroxypropylcellulose) (HPC)) was 0 of 5.

`CC(C)OC1CC(C)(O)Cc2cc3c(c(O)c21)C(=O)c1c(O)cc2c(c1C3=O)OC1OC2(C)C(O)C(N(C)C)C1O` (configuration not stated) was tested, and the survivor count (dose: 32.0 mg/kg/injection, schedule: Q01DX009 (ip), vehicle: other) was 0 of 6.

In the case of `CN(C)CCCC1(O)c2ccccc2CCc2ccccc21`, the survivor count [7] is reported as 1 of 6.

With `Cc1cc2c3c([nH]c2cc1[N+](=O)[O-])CCCC3=O` the survivor count [9] was 5 of 5 and the survivor count [10] was 5 of 5.

With `Nc1ccc(C(=O)c2cccs2)cn1` the survivor count (dose: 200.0 mg/kg/injection, schedule: Q01DX005 (ip), vehicle: distilled water + alcohol) was 3 of 5.

For `Oc1cccnc1Cl`, the T/C (dose: 600.0 mg/kg/injection, schedule: Q01DX009 (ip), vehicle: saline) was 127 % of control.

For `COc1cc(N(CCCl)CCCl)c(OC)cc1/C=N\Nc1nncn1N`, the T/C (dose: 0.62 mg/kg/injection, schedule: Q01DX009 (ip), vehicle: saline) was 140 % of control and the T/C (dose: 1.0 mg/kg/injection, schedule: Q01DX009 (ip), vehicle: saline) was 136 % of control.

`C=C(Br)S(=O)(=O)OCCCl` was tested, and the survivor count (dose: 25.0 mg/kg/injection, schedule: Q01DX005 (ip), vehicle: saline with Tween-80) was 0 of 6, the survivor count (dose: 50.0 mg/kg/injection, schedule: Q01DX005 (ip), vehicle: saline with Tween-80) was 0 of 6 and the survivor count [11] was 0 of 6. For the same molecule, the survivor count [12] was 0 of 6.

With `c1ccc(-c2ncc[nH]2)cc1` the survivor count (dose: 400.0 mg/kg/injection, schedule: Q01DX001 (ip), vehicle: saline with Tween-80) was 2 of 6.

`COc1ccc2c(c1OC)C(=C(Cl)Cl)N1CCc3cc4c(cc3C1=C2C=O)OCO4` was tested, and the survivor count [11] was 6 of 6 and the survivor count [12] was 6 of 6.

With `Cc1cccc(C)c1NC1=C(Cl)C(=O)c2ccccc2C1=O` the survivor count (dose: 60.0 mg/kg/injection, schedule: Q01DX005 (ip), vehicle: saline with Tween-80) was 2 of 6, the survivor count (dose: 120.0 mg/kg/injection, schedule: Q01DX005 (ip), vehicle: saline with Tween-80) was 0 of 6 and the survivor count (dose: 240.0 mg/kg/injection, schedule: Q01DX005 (ip), vehicle: saline with Tween-80) was 0 of 6.

For `O=C(Oc1ccc[nH]c1=O)c1ccc(F)cc1`, the survivor count [8] was 6 of 6.

For `Cc1cc2c(cc1C)NC1C(=O)C(c3ccc(Cl)c(Cl)c3)OC1=N2` (configuration not stated), the survivor count (dose: 60.0 mg/kg/injection, schedule: Q01DX005 (ip), vehicle: Klucel (hydroxypropylcellulose) (HPC)) was 6 of 6 and the survivor count (dose: 120.0 mg/kg/injection, schedule: Q01DX005 (ip), vehicle: Klucel (hydroxypropylcellulose) (HPC)) was 6 of 6.

In the case of `CC1(C)N=C(N)N=C(N)N1c1ccc(CNC(=O)Nc2ccc(S(=O)(=O)F)cc2)c(Cl)c1`, the T/C (dose: 59.0 mg/kg/injection, schedule: Q04DX003 (ip), vehicle: saline with Tween-80) is reported as 136 % of control, the T/C (dose: 88.0 mg/kg/injection, schedule: Q04DX003 (ip), vehicle: saline with Tween-80) is reported as 145 % of control and the T/C [1] is reported as 140 % of control. The T/C [13] was 131 % of control, the survivor count [13] was 1 of 6 and the survivor count [2] was 1 of 6 and 6 of 6. For the same molecule, the survivor count (dose: 300.0 mg/kg/injection, schedule: Q04DX003 (ip), vehicle: saline with Tween-80) was 0 of 6 and 2 of 6 and the survivor count [3] was 2 of 6.

With `O=C(c1ccncc1)N(CO)N(Cn1c(=O)sc2ccccc21)Cn1c(=O)sc2ccccc21` the survivor count [4] was 6 of 6, the survivor count [5] was 6 of 6 and the survivor count [6] was 6 of 6.

With `CN1CC2(C)CCCC(C)(C1)C2O` (configuration not stated) the survivor count [12] was 0 of 6.

For `[Se]c1nc(N2CCOCC2)ncc1-c1ccccc1`, the survivor count (dose: 50.0 mg/kg/injection, schedule: Q01DX009 (ip), vehicle: saline with Tween-80) was 6 of 6 and the survivor count (dose: 100.0 mg/kg/injection, schedule: Q01DX009 (ip), vehicle: saline with Tween-80) was 6 of 6.
